These are yes or no findings as the source states them, for the method shown. Binding seen in cells or lysates may run through a third protein. Some binding calls cover weakened binding; strength is not graded here.
Target: GST::CFDP1 (human) (UniProt Q9UEE9)
Experiment: pull-down; GST or GST::CFDP1 bound to glutathione-agarose beads, incubated overnight at 4 °C with extracts of HeLa cells transfected with pcDNA3.1/nV5-DEST::CFDP1 in 20 mM Tris pH 8, 150 mM NaCl, 0.5% Nonidet P-40, 1 mM EDTA; five washes; Western blotting (anti-V5); only the target purified

Chains of the proteins cited; added tags and fusions are not shown.
UniProt Q9UEE9: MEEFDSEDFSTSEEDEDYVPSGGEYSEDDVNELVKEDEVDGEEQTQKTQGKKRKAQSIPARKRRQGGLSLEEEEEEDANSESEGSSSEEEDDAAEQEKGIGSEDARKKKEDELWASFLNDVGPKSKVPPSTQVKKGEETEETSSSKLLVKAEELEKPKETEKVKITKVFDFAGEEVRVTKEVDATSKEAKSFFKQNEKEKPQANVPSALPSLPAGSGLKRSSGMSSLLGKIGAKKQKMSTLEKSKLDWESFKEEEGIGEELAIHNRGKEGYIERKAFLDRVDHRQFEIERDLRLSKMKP

binding: binds
Substance: V5::CFDP1 (from UniProt Q9UEE9 1-299)

From paper PMC4858687
